Results deposited as PubChem BioAssay AID1259424 (University of Nebraska Medical Center, 2018)

- Screen: 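Rank knockdowns across the genome by resemblance to the KSR1 depletion profile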 (primary screen)
- Cells: human HCT116 colon cancer cells
- Reagents: siRNA pool against human genes, 50 nM
- Measured: 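Log2 levels of six mRNAs (branched-DNA multiplex), adjusted by two reference genes and the non-targeting median, then scored against the average KSR1 knockdown pattern as Pearson r and euclidean distance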
- Scale: mean correlation with KSR1 profile: higher = expression change more like KSR1 knockdown
Here is one part, drawn at random, of about 14,000 deposited reagents. 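Higher correlation or smaller distance means closer resemblance to KSR1 loss; control wells, including KSR1 knockdowns, recur on many plates.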 Not all columns of the deposit are shown. No sequences are given here. The record does not give: the time to read-out.

{"target": "COX7A2P2 (cytochrome c oxidase subunit 7A2 pseudogene 2)", "mean correlation with KSR1 profile": -0.335}
{"target": "SERPINB1 (serpin family B member 1)", "mean correlation with KSR1 profile": -0.399}
{"target": "CEP68 (centrosomal protein 68)", "mean correlation with KSR1 profile": -0.0533}
{"target": "A4GNT (alpha-1,4-N-acetylglucosaminyltransferase)", "mean correlation with KSR1 profile": 0.106}
{"target": "EPHA3 (EPH receptor A3)", "mean correlation with KSR1 profile": 0.721}
{"target": "RPP38 (ribonuclease P/MRP subunit p38)", "mean correlation with KSR1 profile": -0.33}
{"target": "IL17B (interleukin 17B)", "mean correlation with KSR1 profile": -0.514}
{"target": "RPAP2 (RNA polymerase II associated protein 2)", "mean correlation with KSR1 profile": 0.18}
{"target": "CD46 (CD46 molecule)", "mean correlation with KSR1 profile": -0.275}
{"target": "PRH2 (proline rich protein HaeIII subfamily 2)", "mean correlation with KSR1 profile": 0.644}
{"target": "NPRL3 (NPR3 like, GATOR1 complex subunit)", "mean correlation with KSR1 profile": -0.414}
{"target": "ATAD3A (ATPase family AAA domain containing 3A)", "mean correlation with KSR1 profile": -0.0752}
